# The other results are listed elsewhere or left out.
# Target: T1, OsSMF1 (Oryza sativa, UniProt Q6ZLB0 1-436)
# T1 sequence: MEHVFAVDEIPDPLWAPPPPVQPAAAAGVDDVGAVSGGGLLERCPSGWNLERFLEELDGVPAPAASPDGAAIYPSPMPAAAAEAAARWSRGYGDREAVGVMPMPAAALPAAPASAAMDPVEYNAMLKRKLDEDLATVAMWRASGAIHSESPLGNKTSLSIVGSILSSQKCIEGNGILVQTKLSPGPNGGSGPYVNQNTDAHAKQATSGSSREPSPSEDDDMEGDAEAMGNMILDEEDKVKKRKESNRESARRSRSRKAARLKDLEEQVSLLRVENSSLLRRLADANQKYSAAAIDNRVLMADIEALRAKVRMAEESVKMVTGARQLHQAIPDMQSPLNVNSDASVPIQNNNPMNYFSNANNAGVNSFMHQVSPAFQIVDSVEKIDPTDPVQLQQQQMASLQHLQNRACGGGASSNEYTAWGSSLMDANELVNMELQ
# Test: protein-binding microarray (RPBM); PBS, 2% BSA, 51.3 ng/ul salmon testes DNA, 50 uM zinc acetate, 200 nM TF, 25 C, 1 h; high values mean tight binding
# Details: protein: recombinant; tags: N-terminal polyhistidine and DsRed monomer fusion (pET32a); chain copies: 2; label: CyDye5-dUTP incorporated in the synthesized complementary strand; 3' TTTTT single-stranded linker to array surface; dsDNA, one strand shown
# Summary of the method: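 The binding signal is fluorescence intensity per feature, in arbitrary units, read on an Axon 4000B scanner. Polyhistidine- and DsRed-tagged transcription factors (N-terminal fusions) from E. coli BL21-CodonPlus were purified on Ni–NTA and applied at 200 nM for 1 h at 25 °C to a double-stranded, BSA-blocked custom Agilent array in buffer with 50 µM zinc acetate.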
row,Sequence,binding signal
1,AAAGAAAGAAAGGCACGCGTCATCTTCCTTCCTACTCACGCGGAGTCACCTAGTGCAG,7350 fluorescence intensity (a.u.)
2,ATAACGTGACAAATGCGACATGGTTCATGCTTGCTCGATTCGGAGTCACCTAGTGCAG,3680 fluorescence intensity (a.u.)
3,GAGGCCTGCGACGTGATCGTGGACGAACACATCAGCGGCACGGAGTCACCTAGTGCAG,5130 fluorescence intensity (a.u.)
4,TCCTGGTACGGCACCTCCACGTCGGCGGCCGCCACCACGTCGGAGTCACCTAGTGCAG,5370 fluorescence intensity (a.u.)
5,CGTCCGCAGCACGCCACGGTAGCGCGACACCCGGCCTTCCCGGAGTCACCTAGTGCAG,4600 fluorescence intensity (a.u.)
6,ATCGTGCTCCTTCTTTGGGTTGTAGTATTTTATATGGTTGCGGAGTCACCTAGTGCAG,3250 fluorescence intensity (a.u.)
7,AAATTAATGAGATCGATTGTTCGTTGCAATGTCAGCAGGTCGGAGTCACCTAGTGCAG,4600 fluorescence intensity (a.u.)
8,TTGGCGAGGCTCGCCGTGGTTGCGCCGGCGGCGGCCACGTCGGAGTCACCTAGTGCAG,4880 fluorescence intensity (a.u.)
9,AAAACTATTCGAATAGCTGTGCCCGCGGTTATGGGCGGGTCGGAGTCACCTAGTGCAG,3340 fluorescence intensity (a.u.)
10,CTAAGCATCCTGCATAATATCATAATCGTCCGGACGTCATCGGAGTCACCTAGTGCAG,34100 fluorescence intensity (a.u.)
11,CTGCTATCGGCTAGCGACAGGGCTCGAGTTCGATGTCATCCGGAGTCACCTAGTGCAG,3280 fluorescence intensity (a.u.)
12,TGCGCAGTCCGAGTCCGAGCCCAACTAAACCACGTTCTAACGGAGTCACCTAGTGCAG,34700 fluorescence intensity (a.u.)
13,TGCTGCCGCTGTACACGCGCGGACCCAAGAACGCGCCTCCCGGAGTCACCTAGTGCAG,3910 fluorescence intensity (a.u.)
14,GACGGTTAACCCAATGCAGGTTCACATAATCGTGCACGTTCGGAGTCACCTAGTGCAG,28400 fluorescence intensity (a.u.)
15,TCCACGCGCGTGAGGTTTGCTGTGACGAAGGCCATCGGTGCGGAGTCACCTAGTGCAG,3330 fluorescence intensity (a.u.)
16,ATTTCAATCTAGCTGACATCATCACTTCATCTTATTTGACCGGAGTCACCTAGTGCAG,11700 fluorescence intensity (a.u.)
17,AGTAGGCGGTGATGTGACTCAGCTATACTTAAAACAAGGCCGGAGTCACCTAGTGCAG,5750 fluorescence intensity (a.u.)
18,GGCGACCAGACATGGCTGTCCACGCTGGCCCCTCGCCTTACGGAGTCACCTAGTGCAG,5460 fluorescence intensity (a.u.)
19,GAGTTCTTAAAGGCTATACACCCTACGAGAATCCACATCACGGAGTCACCTAGTGCAG,4320 fluorescence intensity (a.u.)
20,GGACACGAGGCTTCTTTGGCAGACGTGGCGCTGAGTGAGCCGGAGTCACCTAGTGCAG,11500 fluorescence intensity (a.u.)
21,GGGCCCACCTTGAAAGATCACGTGTCACCCGCGCCATCTACGGAGTCACCTAGTGCAG,4030 fluorescence intensity (a.u.)
22,CATCGAAAATCAAAATCCAAGGAACACGTCAATAACAACACGGAGTCACCTAGTGCAG,8250 fluorescence intensity (a.u.)
23,AATCGAGAAATCCTTCGAACCTAGTAATAATGCCTACTCTCGGAGTCACCTAGTGCAG,23700 fluorescence intensity (a.u.)
24,GTCCAATCCCTTACCGTTGATTGGCCACGTGGCTAAAACTCGGAGTCACCTAGTGCAG,8830 fluorescence intensity (a.u.)
25,CAAGCGCGGCGGCGGCGACAGACGTCATCGGCGGCGAGGTCGGAGTCACCTAGTGCAG,6430 fluorescence intensity (a.u.)
26,AACCGCAAGCAACCCAGAGACGACGAGCCACGCACTCACCCGGAGTCACCTAGTGCAG,4150 fluorescence intensity (a.u.)
27,GGAGTGGAATCCAATGCGGGTGGCGTCCAGTGAGACGTGGCGGAGTCACCTAGTGCAG,4780 fluorescence intensity (a.u.)

# Retrieved one by one from the entries so far:
row,Sequence,binding signal
6,ATCGTGCTCCTTCTTTGGGTTGTAGTATTTTATATGGTTGCGGAGTCACCTAGTGCAG,3250 fluorescence intensity (a.u.)
25,CAAGCGCGGCGGCGGCGACAGACGTCATCGGCGGCGAGGTCGGAGTCACCTAGTGCAG,6430 fluorescence intensity (a.u.)
8,TTGGCGAGGCTCGCCGTGGTTGCGCCGGCGGCGGCCACGTCGGAGTCACCTAGTGCAG,4880 fluorescence intensity (a.u.)
27,GGAGTGGAATCCAATGCGGGTGGCGTCCAGTGAGACGTGGCGGAGTCACCTAGTGCAG,4780 fluorescence intensity (a.u.)

# Remaining list, next part.

row,Sequence,binding signal
1,CTATAACATCGCATGACACTATTTGCTTTATTTATTTATTCGGAGTCACCTAGTGCAG,3720 fluorescence intensity (a.u.)
2,TTGCATACCAGTTTAGTCAAACGAATTTATCTTAGTTTAACGGAGTCACCTAGTGCAG,19400 fluorescence intensity (a.u.)
3,AGCACCACCACCACCACCCTCTCCCTGCACGTCACGAAGCCGGAGTCACCTAGTGCAG,5580 fluorescence intensity (a.u.)
4,GGCGTGGTGCTATGTTTGGTGATCATTTTGCCAGTCTGTCCGGAGTCACCTAGTGCAG,3170 fluorescence intensity (a.u.)
5,GAGCCCTACGTCGCCGCCCACAACGTGATACTCTCCCACGCGGAGTCACCTAGTGCAG,3530 fluorescence intensity (a.u.)
6,ATTCAGGCTGAGGCATGTGATGACGGGAATTCGGATACTGCGGAGTCACCTAGTGCAG,3370 fluorescence intensity (a.u.)
7,TTCGTCTCCGATCGATGCCTCGCCTGACTCGCATGAGGGGCGGAGTCACCTAGTGCAG,3210 fluorescence intensity (a.u.)
8,GGAGGACTGACCTGACGCTGGCCCCTGCCACGTGGCGGTGCGGAGTCACCTAGTGCAG,34800 fluorescence intensity (a.u.)
9,GTGATACATGCTGACGTCTTATTTGATATGCCATAAATATCGGAGTCACCTAGTGCAG,6270 fluorescence intensity (a.u.)
10,TACACGCTGACGCAACACACGAGCGTACGCACATAATCACCGGAGTCACCTAGTGCAG,5440 fluorescence intensity (a.u.)
11,CCAGCGGATGAACGTGACGCGACCTCCAACCACAAGCCTCCGGAGTCACCTAGTGCAG,4330 fluorescence intensity (a.u.)
12,CGCAGCGGCCGACCTTGTCGGTAGTCATGATGGCGACGAACGGAGTCACCTAGTGCAG,3680 fluorescence intensity (a.u.)
13,CCCAGTCCACGTACGTGGGGCTAGGTCTATAGACCTGGATCGGAGTCACCTAGTGCAG,7240 fluorescence intensity (a.u.)
14,ATATAAGCCGCTGCGAGTGTGGTCATCAGTGGTGAGAGTGCGGAGTCACCTAGTGCAG,26800 fluorescence intensity (a.u.)
15,CCGCCGTGTGACACTGACACCCTGACCCACCAGTGGGGCCCGGAGTCACCTAGTGCAG,4310 fluorescence intensity (a.u.)
16,GGATATGTATAACAATGTGGGTCAGCAATATTGAACTATGCGGAGTCACCTAGTGCAG,3650 fluorescence intensity (a.u.)
17,AATCGCCGCCCGCCACGTGTCGCCTTCCCTTGCACGCCATCGGAGTCACCTAGTGCAG,17400 fluorescence intensity (a.u.)
18,TGATGGTAATGGCATGACACTTAGGTTGTTATTTCTATTTCGGAGTCACCTAGTGCAG,3170 fluorescence intensity (a.u.)
19,TGTTCATTTTGAATATCTGTACATACTGCTGGGTTATGACCGGAGTCACCTAGTGCAG,3440 fluorescence intensity (a.u.)
20,TGCTGTGGTGTGGTGTGGTGTGAATTTTGTTGATTGGTCGCGGAGTCACCTAGTGCAG,3980 fluorescence intensity (a.u.)
21,CCCTCTCCTCTCTGTCGCCTCGCCACCACCATAGCTAATCCGGAGTCACCTAGTGCAG,3150 fluorescence intensity (a.u.)
22,AGTCTCAGATCTACTTGCGGCGGCGAAGGCTCGGGAGGGGCGGAGTCACCTAGTGCAG,3530 fluorescence intensity (a.u.)
23,GGCCTTGCCACGAGCCCACGAGAGGTTTGGTTGATGGGCCCGGAGTCACCTAGTGCAG,46500 fluorescence intensity (a.u.)
24,CTTCAGTCCCGGTTGGTAAGGCTCAGCCGGCCACGTGGCTCGGAGTCACCTAGTGCAG,17200 fluorescence intensity (a.u.)
25,ACATACATCATTACCGAATTTGTTGTCATCAGAATTGCATCGGAGTCACCTAGTGCAG,3480 fluorescence intensity (a.u.)
26,CCTGACCAAGCGGTTCGGCCGCAGCCACAGCCGCAGCGAACGGAGTCACCTAGTGCAG,3190 fluorescence intensity (a.u.)
27,CCGCATTTTAATGTATGACGTCATTGACTTTTCGATCAACCGGAGTCACCTAGTGCAG,16500 fluorescence intensity (a.u.)

# Reference: publication PMC7819943, “Rice protein-binding microarrays: a tool to detect cis-acting elements near promoter regions in rice”
